We go through one molecule from article PMC6675128.

In this experiment the target is T1, BCDIN3D tagged with a FLAG tag at its C-terminus (human) (UniProt Q7Z5W3).
T1 sequence: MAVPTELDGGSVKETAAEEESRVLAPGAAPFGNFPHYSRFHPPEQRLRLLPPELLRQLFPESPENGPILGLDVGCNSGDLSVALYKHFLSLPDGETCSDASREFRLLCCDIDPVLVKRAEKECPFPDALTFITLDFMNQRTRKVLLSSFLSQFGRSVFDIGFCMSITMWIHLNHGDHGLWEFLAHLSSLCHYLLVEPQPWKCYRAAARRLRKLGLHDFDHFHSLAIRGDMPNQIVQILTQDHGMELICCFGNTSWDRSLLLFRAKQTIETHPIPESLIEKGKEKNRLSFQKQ
Description: affinity purification with mass spectrometry; anti-FLAG M2 beads on lysate of HeLa-S3-Flp-In-BCDIN3Df cells (20 mM HEPES pH7.5, 150 mM NaCl, 20% glycerol, 0.1% NP40, 1 mM EDTA, 4°C), 3xFLAG peptide elution; bands specific to BCDIN3Df against Control eluates cut out for LC-MS/MS.

Results are given in words; binding and its absence hold for the method and conditions named. In cells and extracts the contact can be indirect. These calls come from enrichment with a bait or labelling near it, and not all partners need be listed. Sequences can lack the tags named with a protein.

B1: TRMT5 (enzyme, UniProt Q32P41 1-509)
chain: MVLWILWRPFGFSGRFLKLESHSITESKSLIPVAWTSLTQMLLEAPGIFLLGQRKRFSTMPETETHERETELFSPPSDVRGMTKLDRTAFKKTVNIPVLKVRKEIVSKLMRSLKRAALQRPGIRRVIEDPEDKESRLIMLDPYKIFTHDSFEKAELSVLEQLNVSPQISKYNLELTYEHFKSEEILRAVLPEGQDVTSGFSRIGHIAHLNLRDHQLPFKHLIGQVMIDKNPGITSAVNKINNIDNMYRNFQMEVLSGEQNMMTKVRENNYTYEFDFSKVYWNPRLSTEHSRITELLKPGDVLFDVFAGVGPFAIPVAKKNCTVFANDLNPESHKWLLYNCKLNKVDQKVKVFNLDGKDFLQGPVKEELMQLLGLSKERKPSVHVVMNLPAKAIEFLSAFKWLLDGQPCSSEFLPIVHCYSFSKDANPAEDVRQRAGAVLGISLEACSSVHLVRNVAPNKEMLCITFQIPASVLYKNQTRNPENHEDPPLKRQRTAEAFSDEKTQIVSNT
Consider B1, for which the binding result is recorded as “binds”.
